Test results as given in patent US11872270B2, “A*03 restricted peptides for use in immunotherapy against cancers and related methods” (Immatics Biotechnologies GmbH, priority 2018, dated 2024).

Test system: HLA molecules from shock-frozen tissue samples
Test: Identification and quantitation of tumor associated peptides presented on the cell surface (HLA immunoprecipitation, LC-MS)
Parameters: species or system human
Conditions: cancer entities on which the peptide was detected by LC-MS of HLA ligands

Substance	Peptide Presentation on cancer entities
1 (RVYPHKTLY; listed as Homo sapiens) [compound 1]	HCC, UBC
2 (KVMPKQTWK; listed as Homo sapiens) [compound 2]	HCC
3 (LLYGNGPGYVLK; listed as Homo sapiens) [compound 3]	UEC
4 (RGLSGIGAFR; listed as Homo sapiens) [compound 4]	HNSCC
6 (SIFGLAPGK; listed as Homo sapiens) [compound 6]	UEC
7 (RLVELAGQSLLK; listed as Homo sapiens) [compound 7]	UEC
8 (FSNNHPSTPK; listed as Homo sapiens) [compound 8]	MEL
9 (HVLYPVPLESY; listed as Homo sapiens) [compound 9]	MEL
10 (KARDLRTPK; listed as Homo sapiens) [compound 10]	CRC
11 (PLPRPGAVLK; listed as Homo sapiens) [compound 11]	NHL
13 (AVAFFVLPSK; listed as Homo sapiens) [compound 13]	NHL
14 (VAFFVLPSK; listed as Homo sapiens) [compound 14]	AML
17 (GGLSSQGVYY; listed as Homo sapiens) [compound 17]	CCC
18 (RLYYSFKNITK; listed as Homo sapiens) [compound 18]	NHL
19 (ALAAKLEVK; listed as Homo sapiens) [compound 19]	GBM
20 (LLPTVLIKK; listed as Homo sapiens) [compound 20]	AML, HCC, HNSCC, NSCLCother, OSCAR, UEC
21 (SSLAELIAK; listed as Homo sapiens) [compound 21]	HNSCC
22 (EGLFLLGCVK; listed as Homo sapiens) [compound 22]	NHL
24 (KLETGVVKK; listed as Homo sapiens) [compound 24]	RCC
30 (ILDSSLLK; listed as Homo sapiens) [compound 30]	NHL
31 (HAFFPKTHR; listed as Homo sapiens) [compound 31]	UEC
32 (LLDAEPPILY; listed as Homo sapiens) [compound 32]	BRCA
33 (KLLEDMVEK; listed as Homo sapiens) [compound 33]	UEC
36 (QIRAELMKK; listed as Homo sapiens) [compound 36]	HNSCC, NHL
37 (EVILTTKTPK; listed as Homo sapiens) [compound 37]	MEL

Substance	Peptide Presentation on cancer entities
38 (SLFPYYNNLY; listed as Homo sapiens) [compound 38]	NHL
39 (KTQFPQLK; listed as Homo sapiens) [compound 39]	HCC
40 (ALNDRFAGY; listed as Homo sapiens) [compound 40]	PRCA
41 (RLGAARGQLR; listed as Homo sapiens) [compound 41]	NSCLCadeno
43 (TVYDSIWCNMK; listed as Homo sapiens) [compound 43]	UEC
45 (KCYEVGMMK; listed as Homo sapiens) [compound 45]	UEC
46 (VVTGNVPLK; listed as Homo sapiens) [compound 46]	HCC, MEL
48 (KGWNGQIFK; listed as Homo sapiens) [compound 48]	AML
49 (ITAPLMPLGK; listed as Homo sapiens) [compound 49]	CCC, HNSCC
50 (HSAGIFSMY; listed as Homo sapiens) [compound 50]	NHL
51 (VTADGALAMEK; listed as Homo sapiens) [compound 51]	CCC, CRC, HNSCC, UEC
52 (GMYEYGSIEK; listed as Homo sapiens) [compound 52]	MEL
53 (KQALSLVRK; listed as Homo sapiens) [compound 53]	CCC, CRC, HNSCC, UEC
54 (GVTITKTLK; listed as Homo sapiens) [compound 54]	BRCA, MEL
55 (RLSAESKDLLK; listed as Homo sapiens) [compound 55]	GBM
56 (TTYYPSPLNK; listed as Homo sapiens) [compound 56]	RCC
57 (RVLYRPQLEK; listed as Homo sapiens) [compound 57]	HCC
58 (VLYRPQLEK; listed as Homo sapiens) [compound 58]	HCC
59 (KINQYIIKK; listed as Homo sapiens) [compound 59]	MEL
60 (VVFPFPVNKR; listed as Homo sapiens) [compound 60]	AML
61 (SLYDSEPRKK; listed as Homo sapiens) [compound 61]	AML, CCC, GBC, GBM, HNSCC, MEL, NHL, OSCAR, UBC, UEC
62 (GIFPKIMPK; listed as Homo sapiens) [compound 62]	HCC
63 (SSFRPLLSK; listed as Homo sapiens) [compound 63]	BRCA, CRC, GBM, HCC, MEL, PACA, PRCA, SCLC, UEC
64 (SVLSRMLVR; listed as Homo sapiens) [compound 64]	MEL, UEC
65 (RTIEELQNK; listed as Homo sapiens) [compound 65]	HNSCC

Substance	Peptide Presentation on cancer entities
66 (RVKEIVINK; listed as Homo sapiens) [compound 66]	MEL
67 (VVREILHAQTLK; listed as Homo sapiens) [compound 67]	MEL, NHL
68 (KGPMAGILAY; listed as Homo sapiens) [compound 68]	AML, NHL
71 (VLYELGIIGNNK; listed as Homo sapiens) [compound 71]	MEL
72 (KLYPQCLQK; listed as Homo sapiens) [compound 72]	NHL
73 (RCFSGPYLNK; listed as Homo sapiens) [compound 73]	BRCA, MEL, NHL
75 (IIFVPEMNK; listed as Homo sapiens) [compound 75]	UEC
77 (VVDDSQLPK; listed as Homo sapiens) [compound 77]	CCC, CRC, MEL, NHL, NSCLCsquam, RCC
78 (KTGTFVLYKS; listed as Homo sapiens) [compound 78]	HNSCC, NHL, SCLC
80 (ALCGTQLFY; listed as Homo sapiens) [compound 80]	AML, CCC, HCC, NHL, NSCLCadeno, NSCLCsquam, UEC
82 (CLANYTVNK; listed as Homo sapiens) [compound 82]	UEC
83 (KLADSVMAGK; listed as Homo sapiens) [compound 83]	BRCA, CRC, GBM, SCLC
85 (IMPTFDLTK; listed as Homo sapiens) [compound 85]	HCC
86 (RVSGSGGGGAGK; listed as Homo sapiens) [compound 86]	NHL
87 (RLASVGLDAK; listed as Homo sapiens) [compound 87]	HCC
88 (GTHVWVGLYK; listed as Homo sapiens) [compound 88]	PACA
90 (RTALLWGLKK; listed as Homo sapiens) [compound 90]	HNSCC
92 (KRIPFRPLAK; listed as Homo sapiens) [compound 92]	HCC
95 (FLGLAFHPK; listed as Homo sapiens) [compound 95]	SCLC
96 (RAVSVNPGK; listed as Homo sapiens) [compound 96]	CCC, GBC, HNSCC
97 (RVRALGSQY; listed as Homo sapiens) [compound 97]	CCC
98 (VSVAGSILAK; listed as Homo sapiens) [compound 98]	GBC
100 (TTNARILAR; listed as Homo sapiens) [compound 100]	MEL
101 (HMDEFKRTQK; listed as Homo sapiens) [compound 101]	CRC
